PubChem BioAssay AID743454 | Peter MacCallum Cancer Centre, 2014
Here is a random part of about 18,000 reagents tested. Over the whole deposit, 450 (2.5%) got an active call. 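Single biological run; no consistent viability z cut-off exists, so the class columns, not z-scores, define the calls.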

- Test: 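Genes whose loss kills vorinostat-resistant colon cancer cells under vorinostat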 (primary screen)
- Cell system: human HCT116-VR colon cancer cells, selected for vorinostat resistance
- Reagent: siRNA pool against human genes, 40 nM siRNA pool
- Duration: vorinostat for 24 h, read-out about 72 h after transfection
- Treatment: vorinostat at 2.5 µM final
- Read-out: 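Two measures, CellTiter-Fluor viability and luminescent caspase 3/7 activity, each as fold change against same-plate mock wells, mean of duplicates, then screen-wide robust z-score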
- Direction: viability robust z-score: higher = more viable cells than screen typical; caspase robust z-score: higher = more caspase 3/7 activity than screen typical
- Rule for the call: 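a knock-down is a hit when classed RV1 or RV2 for lowered viability, or CA1 or CA2 for caspase activation; those lethal without drug were dropped; hits were retested singly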

With ITGAE (integrin subunit alpha E), what was measured?
viability hit class: no change; caspase hit class: no change; viability robust z-score: 0.9; caspase robust z-score: -0.08; Call: inactive

For FRG2 (FSHD region gene 2), how do the results read?
viability hit class: no change; caspase hit class: no change; viability robust z-score: 0.8; caspase robust z-score: 0.07; Call: inactive

Which result is listed for MRGBP (MRG domain binding protein)?
viability hit class: no change; caspase hit class: no change; viability robust z-score: -0.49; caspase robust z-score: 1.67; Call: inactive

Which result is listed for ECHDC1 (ethylmalonyl-CoA decarboxylase 1)?
viability hit class: no change; caspase hit class: no change; viability robust z-score: 0.64; caspase robust z-score: -0.83; Call: inactive

What is on record for NUP62CL (nucleoporin 62 C-terminal like)?
viability hit class: no change; caspase hit class: no change; viability robust z-score: 1.34; caspase robust z-score: 0.16; Call: inactive

Which result is listed for RTF1 (RTF1 homolog, Paf1/RNA polymerase II complex component)?
viability hit class: no change; caspase hit class: no change; viability robust z-score: -1.42; caspase robust z-score: 4.27; Call: inactive

How did the screen score RFPL4AL1 (ret finger protein like 4A like 1)?
viability hit class: no change; caspase hit class: no change; viability robust z-score: -1.48; caspase robust z-score: 4.1; Call: inactive

What did the screen give for CCDC60 (coiled-coil domain containing 60)?
viability hit class: no change; caspase hit class: no change; viability robust z-score: 0.2; caspase robust z-score: 0.05; Call: inactive

Which result is listed for CCNA1 (cyclin A1)?
viability hit class: no change; caspase hit class: no change; viability robust z-score: 0.01; caspase robust z-score: -0.4; Call: inactive

Which result is listed for CUEDC2 (CUE domain containing 2)?
viability hit class: no change; caspase hit class: no change; viability robust z-score: 1.29; caspase robust z-score: -0.22; Call: inactive

How did the screen score HOXD9 (homeobox D9)?
viability hit class: no change; caspase hit class: no change; viability robust z-score: -2.29; caspase robust z-score: 0.16; Call: inactive

With ZNF704 (zinc finger protein 704), what was measured?
viability hit class: no change; caspase hit class: no change; viability robust z-score: -0.7; caspase robust z-score: 0.18; Call: inactive

With SP2 (Sp2 transcription factor), how do the results read?
viability hit class: no change; caspase hit class: no change; viability robust z-score: 0.12; caspase robust z-score: -0.71; Call: inactive

Reformatted: entries from further up
CCDC60 (coiled-coil domain containing 60)
- viability hit class: no change
- caspase hit class: no change
- viability robust z-score: 0.2
- caspase robust z-score: 0.05
- Call: inactive

CCNA1 (cyclin A1)
- viability hit class: no change
- caspase hit class: no change
- viability robust z-score: 0.01
- caspase robust z-score: -0.4
- Call: inactive

CUEDC2 (CUE domain containing 2)
- viability hit class: no change
- caspase hit class: no change
- viability robust z-score: 1.29
- caspase robust z-score: -0.22
- Call: inactive

The results go on:
How did the screen score VTI1A (vesicle transport through interaction with t-SNAREs 1A)?
viability hit class: no change; caspase hit class: no change; viability robust z-score: 0.38; caspase robust z-score: -0.48; Call: inactive

What did the screen give for UBE2E2 (ubiquitin conjugating enzyme E2 E2)?
viability hit class: no change; caspase hit class: no change; viability robust z-score: -0.44; caspase robust z-score: -0.46; Call: inactive

For ZNF268 (zinc finger protein 268), what does the deposit list?
viability hit class: no change; caspase hit class: no change; viability robust z-score: -0.18; caspase robust z-score: 0.9; Call: inactive

What did the screen give for BIRC8 (baculoviral IAP repeat containing 8)?
viability hit class: no change; caspase hit class: no change; viability robust z-score: 1.19; caspase robust z-score: -0.26; Call: inactive

Which result is listed for MYCL (MYCL proto-oncogene, bHLH transcription factor)?
viability hit class: no change; caspase hit class: no change; viability robust z-score: 0.02; caspase robust z-score: -0.42; Call: inactive

For BICRA, what was measured?
viability hit class: no change; caspase hit class: no change; viability robust z-score: 0.64; caspase robust z-score: 0.46; Call: inactive

What is on record for ODF2L (outer dense fiber of sperm tails 2 like)?
viability hit class: no change; caspase hit class: no change; viability robust z-score: 0.12; caspase robust z-score: -0.66; Call: inactive

What did the screen give for SPECC1?
viability hit class: no change; caspase hit class: no change; viability robust z-score: 0.92; caspase robust z-score: 0.07; Call: inactive
